Literature values in patent US20030118553A1, “Vector constructs for gene-therapy mediated radionuclide therapy of undifferentiated and medullary thyroid carcinomas and non-thyroidal tumours and metastases mediated thereof” (priority 2000, published 2003).
For at least one compound, name, drawing or mass did not settle the structure.

System: anaplastic thyroid cells transfected with NIS cDNA
Details: NIS-transfected tumor cells implanted into rats; cited from earlier work

[131IH] [I-131]
effective half-life (intracellular life of the radioisotope): 6 h
